Values are raw readings; no control value is given beside them.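 Maximum concentrations were near the MIC for antimicrobials, 500 µM for most other compounds, and as high as 1 mM for known inducer-like compounds. Deletion strains began with a tenfold smaller inoculum, and wells with growth under 10% of the overall median counted as non-growing.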
Tested on: Escherichia coli BW25113
Assay: growth (OD600 area under curve, 8 h) (OD600 x h); higher = more growth
Method: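 E. coli BW25113 reporter strains (wild type, ΔmarA, ΔsoxS, Δrob, each carrying one of 8 lux reporter plasmids) were grown in 40 µl LB in 384-well plates at 37°C, 800 rpm, with each compound at 4 two-fold concentrations, in biological duplicates. Growth is the baseline-corrected OD600 area under the curve over 8 h (0-8 h WT, 1-9 h deletion strains).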

CCCCCCCCCCCCC[N+](C)(C)Cc1ccccc1 [Benzalkonium]
growth
Settings | reporter plasmid: EVC | reporter plasmid: acrABp | reporter plasmid: marRABp | reporter plasmid: micFp | reporter plasmid: ompFp | reporter plasmid: robp | reporter plasmid: soxSp | reporter plasmid: tolCp
1.9 µg/ml, genetic background: wild type | 2.13 | 2.85 | 3.08 | 2.85 | 2.75 | 2.92 | 2.55 | 2.848
1.9 µg/ml, genetic background: ΔmarA | 2.71 | 3.71 | 3.08 | 2.77 | 3.21 | 3.19 | 2.23 | 2.66
1.9 µg/ml, genetic background: Δrob | 1.92 | 3.097 | 3.27 | 2.44 | 2.4 | 2.47 | 2.44 | 2.31
1.9 µg/ml, genetic background: ΔsoxS | 2.34 | 2.81 | 3.22 | 2.04 | 2.62 | 2.91 | 2.58 | 2.24
3.7 µg/ml, genetic background: wild type | 2.13 | 2.86 | 3.18 | 2.89 | 2.96 | 3.176 | 2.588 | 2.85
3.7 µg/ml, genetic background: ΔmarA | 2.83 | 4.29 | 3.6 | 2.99 | 3.46 | 3.78 | 2.44 | 2.72
3.7 µg/ml, genetic background: Δrob | 2.03 | 3.17 | 3.47 | 2.72 | 2.48 | 2.57 | 2.59 | 2.47
3.7 µg/ml, genetic background: ΔsoxS | 2.36 | 2.93 | 3.34 | 2.26 | 2.84 | 3.42 | 2.8 | 2.25
7.4 µg/ml, genetic background: wild type | 2.57 | 2.86 | 3.16 | 3.14 | 2.95 | 3.38 | 2.86 | 3.03
7.4 µg/ml, genetic background: ΔmarA | 2.792 | 4.33 | 4.02 | 3.36 | 3.35 | 3.74 | 2.37 | 2.64
7.4 µg/ml, genetic background: Δrob | 2.06 | 3.05 | 3.53 | 3.03 | 2.5 | 2.76 | 2.75 | 2.41
7.4 µg/ml, genetic background: ΔsoxS | 2.81 | 3 | 3.3 | 2.41 | 2.88 | 3.532 | 2.95 | 2.6
14.9 µg/ml, genetic background: wild type | 0.86 | -0.242 | 0.0564 | -0.00431 | -0.0485 | 0.0185 | 0.254 | 1.47
14.9 µg/ml, genetic background: ΔmarA | -0.178 | -0.0306 | 0.00624 | -0.0306 | -0.0883 | 0.149 | 0.606 | 0.132
14.9 µg/ml, genetic background: Δrob | -0.308 | 0.00388 | -0.0395 | -0.087 | -0.0754 | -0.0981 | -0.102 | 0.131
14.9 µg/ml, genetic background: ΔsoxS | 1.84 | 0.00694 | 0.0286 | -0.0384 | -0.018 | -0.0596 | 0.0227 | 1.4

Cc1c(N)nc([C@H](CC(N)=O)NC[C@H](N)C(N)=O)nc1C(=O)N[C@H](C(=O)N[C@H](C)[C@@H](O)[C@H](C)C(=O)N[C@H](C(=O)NCCc1nc(-c2nc(C(=O)NCCC[S+](C)C)cs2)cs1)[C@@H](C)O)[C@@H](OC1OC(CO)C(O)C(O)C1OC1OC(CO)C(O)C(OC(N)=O)C1O)c1cnc[nH]1 (stereo partly specified) [Bleomycin]
growth
Settings | reporter plasmid: EVC | reporter plasmid: acrABp | reporter plasmid: marRABp | reporter plasmid: micFp | reporter plasmid: ompFp | reporter plasmid: robp | reporter plasmid: soxSp | reporter plasmid: tolCp
0.038 µg/ml, genetic background: wild type | 2.56 | 3.05 | 3.25 | 2.91 | 3 | 3.21 | 2.97 | 2.95
0.038 µg/ml, genetic background: ΔmarA | 3.09 | 3.92 | 3.49 | 3.04 | 3.24 | 3.74 | 2.74 | 2.64
0.038 µg/ml, genetic background: Δrob | 2.67 | 2.78 | 3.11 | 2.9 | 2.41 | 2.56 | 2.69 | 2.85
0.038 µg/ml, genetic background: ΔsoxS | 2.8 | 2.84 | 2.88 | 2.34 | 2.66 | 2.98 | 3.06 | 2.94
0.076 µg/ml, genetic background: wild type | 2.64 | 2.77 | 2.95 | 2.8818 | 2.79 | 3.094 | 2.897 | 2.68
0.076 µg/ml, genetic background: ΔmarA | 2.63 | 3.38 | 3 | 2.86 | 2.9 | 3.43 | 2.44 | 2.47
0.076 µg/ml, genetic background: Δrob | 2.77 | 2.49 | 2.68 | 2.76 | 2.07 | 2.25 | 2.75 | 2.82
0.076 µg/ml, genetic background: ΔsoxS | 2.93 | 2.51 | 2.65 | 2.58 | 2.44 | 2.69 | 2.92 | 2.99
0.15 µg/ml, genetic background: wild type | 1.9 | 2.2 | 2.45 | 2.32 | 2.38 | 2.67 | 2.54 | 2.37
0.15 µg/ml, genetic background: ΔmarA | 2.369 | 2.45 | 2.19 | 1.98 | 1.82 | 2.6 | 2.48 | 1.963
0.15 µg/ml, genetic background: Δrob | 2.16 | 2.09 | 2.19 | 2.16 | 1.51 | 1.71 | 2.33 | 2.2
0.15 µg/ml, genetic background: ΔsoxS | 2.36 | 2.01 | 2.2 | 1.87 | 1.93 | 2.25 | 2.4 | 2.14
0.3 µg/ml, genetic background: wild type | 0.971 | 0.308 | 0.591 | 1.17 | 0.366 | 0.345 | 1.65 | 1.36
0.3 µg/ml, genetic background: ΔmarA | 0.666 | 0.0259 | -0.00097 | 0.388 | -0.0875 | 0.418 | 0.88 | 0.241
0.3 µg/ml, genetic background: Δrob | 0.835 | 0.0915 | 0.0356 | 0.603 | -0.0484 | 0.00567 | 1.32 | 1.02
0.3 µg/ml, genetic background: ΔsoxS | 1.02 | 0.0103 | 0.0564 | 0.221 | -0.0198 | -0.0105 | 0.442 | 0.937

From the supplement of paper PMC12282887
